Here are results for three sequences from patent US20090117549.

Construct, isoform or probe ends are uncertain for at least one entry. At least one result comes from cells or an extract, where the contact may be indirect. For some of these results: No signal at the amounts used counts as a negative. Where a protein sequence is shown, tags need not be part of it.

Data set [1] has as its target T1, PTK7 (protein tyrosine kinase 7, CCK-4), endogenous on CCRF-CEM cells (Homo sapiens) (UniProt Q13308).
T1 sequence (looked up, limits assumed): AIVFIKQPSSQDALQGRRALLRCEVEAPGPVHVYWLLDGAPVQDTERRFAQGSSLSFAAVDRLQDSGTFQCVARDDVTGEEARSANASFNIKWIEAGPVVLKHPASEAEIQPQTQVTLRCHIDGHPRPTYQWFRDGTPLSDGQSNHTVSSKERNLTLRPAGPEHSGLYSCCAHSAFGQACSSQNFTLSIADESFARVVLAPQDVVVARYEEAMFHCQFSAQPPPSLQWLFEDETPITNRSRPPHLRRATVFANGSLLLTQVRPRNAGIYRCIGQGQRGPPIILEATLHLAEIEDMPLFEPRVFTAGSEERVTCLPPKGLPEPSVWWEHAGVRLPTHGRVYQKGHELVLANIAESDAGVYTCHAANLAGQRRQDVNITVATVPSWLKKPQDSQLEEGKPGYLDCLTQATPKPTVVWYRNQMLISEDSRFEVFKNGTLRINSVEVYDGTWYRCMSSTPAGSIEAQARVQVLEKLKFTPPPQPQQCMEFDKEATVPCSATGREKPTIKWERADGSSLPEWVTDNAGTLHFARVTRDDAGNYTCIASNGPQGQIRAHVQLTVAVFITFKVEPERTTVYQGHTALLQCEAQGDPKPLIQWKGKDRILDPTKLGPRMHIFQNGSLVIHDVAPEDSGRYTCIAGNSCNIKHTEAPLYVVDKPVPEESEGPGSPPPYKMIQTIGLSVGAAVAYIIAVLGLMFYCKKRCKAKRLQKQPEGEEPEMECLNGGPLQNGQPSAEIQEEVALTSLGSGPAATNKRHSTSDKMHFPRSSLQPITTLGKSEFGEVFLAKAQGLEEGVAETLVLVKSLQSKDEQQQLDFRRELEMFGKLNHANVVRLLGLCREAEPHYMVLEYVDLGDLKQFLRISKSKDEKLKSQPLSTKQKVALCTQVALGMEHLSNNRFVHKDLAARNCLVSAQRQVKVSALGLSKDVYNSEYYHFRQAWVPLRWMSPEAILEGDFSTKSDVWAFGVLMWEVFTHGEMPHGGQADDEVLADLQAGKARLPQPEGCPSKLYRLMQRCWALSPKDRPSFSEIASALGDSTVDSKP
Nature of the data set: flow cytometry. The settings on record: apparent Kd on whole CCRF-CEM cells; PTK7 later identified as target; 5 mM MgCl2, 20% FBS, tRNA, BSA, on ice; protein on the cell surface; label: FITC; single-stranded DNA. In general terms: In flow cytometry, cells or beads pass a laser one at a time.

For data set [2], the target named is T2, PTK7 transcript variant PTK7-1, transfected into Ramos or Toledo cells (Homo sapiens) (UniProt Q13308).
T2 sequence (looked up, limits assumed): T1 sequence (looked up, limits assumed)
Description: flow cytometry. Particulars: Ramos and Toledo cells gain sgc8 binding after PTK7 transfection, linear with anti-PTK7-PE signal; protein on the cell surface; protein details: full-length cDNA in pCMV6-XL4, OriGene; label: FITC; single-stranded DNA.

Data set [3] deals with T3, PTK7 (isoform PTK7-5 hit by LC-MS/MS) from CCRF-CEM membrane extract (Homo sapiens) (UniProt Q13308).
T3 sequence (looked up, limits assumed): T1 sequence (looked up, limits assumed)
Nature of the data set: pull-down. The settings on record: protein in an extract, label: biotin, single-stranded DNA.

For the sequence “ATACCAGCTTATTCAATTAGTCACACTTAGAGTTCTAACTGCTGCGCCGCCGGGAAAATACTGTACGGTTAGATAGTAAGTGCAATCT [sgc8]”, in data set [1], the Kd was 0.8 nM. Also, the binding result in data set [2] is on record as “binds”. As for “ATCTAACTGCTGCGCCGCCGGGAAAATACTGTACGGTTAGA [sgc8c]”, the binding result in data set [3] (5'-biotin followed by four 18-atom ethylene glycol spacers, PBS, 5 mM MgCl2, 1% Triton X-100, 4 C, band identified by LC-MS/MS, variant of sgc8) is listed as “binds”.

As to “TACCCCTTTAATCCCAAACCC [Rb1 non-binding sequence]”, the binding result in data set [3] (5'-biotin, non-binding control, characteristic band absent by comparison) is recorded as “no binding”.
